Laboratory results: the supplement of paper PMC3334620
Whole data set: some 33,000 sequences, median “E-score (-0.5 to 0.5)” near -0.0014, cut for the highest 2% near 0.25. The list shows a part of the results.

target: T1, Cad1 (UniProt P24813); test: PBM E-score (8-mer binding enrichment) (E-score (-0.5 to 0.5)); higher = stronger / more preferred TF binding; conditions: protein concentration: 100 nM; construct: GST-full length
T1 sequence: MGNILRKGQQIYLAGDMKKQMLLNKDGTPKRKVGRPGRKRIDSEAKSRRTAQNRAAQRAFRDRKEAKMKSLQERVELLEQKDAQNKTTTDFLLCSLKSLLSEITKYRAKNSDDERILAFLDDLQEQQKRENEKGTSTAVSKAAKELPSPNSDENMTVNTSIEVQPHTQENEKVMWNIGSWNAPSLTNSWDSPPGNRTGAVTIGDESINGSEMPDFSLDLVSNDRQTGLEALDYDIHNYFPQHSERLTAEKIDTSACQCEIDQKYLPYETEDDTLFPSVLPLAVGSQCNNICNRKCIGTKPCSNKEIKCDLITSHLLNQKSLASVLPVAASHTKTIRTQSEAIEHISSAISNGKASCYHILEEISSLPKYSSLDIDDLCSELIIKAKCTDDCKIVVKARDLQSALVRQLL
Outline: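 Each ungapped eight-base word and its reverse complement, pooled, received an E-score from the Universal PBM Analysis Suite. Underlying scans, normalised with masliner, recorded fluorescent anti-GST bound to GST-tagged yeast transcription factors. These were applied at about 100-200 nM to universal all-10-mer Agilent arrays double-stranded by primer extension.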

For CAAGCGGC, which “PBM E-score” value is on record?
The value was 0.0583.

For GACGCGGC, which “PBM E-score” value is on record?
The value was 0.0336.

CGAAGGAG was tested. Which “PBM E-score” value did it give?
Its value is -0.327.

For ACGAGTCG, which “PBM E-score” value is on record?
Its value is -0.0856.

How did the “PBM E-score” value turn out when CGTAACAA was run?
The value was 0.0611.

For ATAAACTA, which “PBM E-score” value is on record?
The value was 0.185.

With ACATGGCC as the sequence, how does the “PBM E-score” value read?
Its value is 0.141.

ACAACCTA was tested. Which “PBM E-score” value did it give?
The value was -0.0289.

TTGACCAA was tested. Which “PBM E-score” value did it give?
The value was 0.0548.

ACAACCGT was tested. Which “PBM E-score” value did it give?
Its value is -0.0336.

How did the “PBM E-score” value turn out when GAGAGACC was run?
Its value is -0.116.

How did the “PBM E-score” value turn out when ACGTCCGC was run?
Its value is 0.186.

How did the “PBM E-score” value turn out when ACTCGAAA was run?
The value was -0.0505.

TACATCTA was tested. Which “PBM E-score” value did it give?
Its value is 0.16.

CGCTTTAA was tested. Which “PBM E-score” value did it give?
The value was 0.111.

How did the “PBM E-score” value turn out when AATGTCAC was run?
Its value is 0.157.

For GTCTCTGA, which “PBM E-score” value is on record?
The value was 0.0111.

ACATAGCT was tested. Which “PBM E-score” value did it give?
The value was -0.0576.

With ATTCTGTC as the sequence, how does the “PBM E-score” value read?
Its value is 0.0916.

Which “PBM E-score” value does the source give for ATCACCCG here?
Its value is 0.0288.

How did the “PBM E-score” value turn out when CGATTGGC was run?
Its value is 0.0682.

With CTTCCCAA as the sequence, how does the “PBM E-score” value read?
Its value is 0.0406.

For GATATAAC, which “PBM E-score” value is on record?
Its value is 0.0923.

Which “PBM E-score” value does the source give for GTGGGGGA here?
The value was -0.287.

How did the “PBM E-score” value turn out when ATTATTTG was run?
Its value is 0.175.

For ACCTTTCG, which “PBM E-score” value is on record?
Its value is -0.119.

With CTCGTCCC as the sequence, how does the “PBM E-score” value read?
The value was -0.093.

For CTCCAGCC, which “PBM E-score” value is on record?
The value was -0.0999.

How did the “PBM E-score” value turn out when TACGAGTA was run?
Its value is 0.208.

For GCCTAAGA, which “PBM E-score” value is on record?
The value was 0.0132.

Which “PBM E-score” value does the source give for GAGTCCGA here?
Its value is 0.0402.

GTGACTAA was tested. Which “PBM E-score” value did it give?
The value was 0.37.

With ACCCACGA as the sequence, how does the “PBM E-score” value read?
Its value is -0.015.

With GAGGCTGA as the sequence, how does the “PBM E-score” value read?
Its value is -0.0204.

Which “PBM E-score” value does the source give for ATATCTCA here?
Its value is 0.244.

How did the “PBM E-score” value turn out when GGCGAGTA was run?
Its value is -0.0941.

For GGAGTCTA, which “PBM E-score” value is on record?
Its value is -0.345.

ATCCTTAA was tested. Which “PBM E-score” value did it give?
The value was -0.0702.

AAGTAAGC was tested. Which “PBM E-score” value did it give?
Its value is 0.16.

With CCGAGGTC as the sequence, how does the “PBM E-score” value read?
Its value is 0.12.

How did the “PBM E-score” value turn out when TCTCCTCA was run?
The value was -0.196.

How did the “PBM E-score” value turn out when AATTTGGT was run?
The value was 0.106.

For ACCACCCA, which “PBM E-score” value is on record?
Its value is -0.0492.

ATGCTCCG was tested. Which “PBM E-score” value did it give?
Its value is -0.114.

For AGACTTAC, which “PBM E-score” value is on record?
Its value is -0.0165.

How did the “PBM E-score” value turn out when TCCCGAAA was run?
Its value is -0.218.

Which “PBM E-score” value does the source give for AGTGGTAT here?
Its value is -0.0581.

Which “PBM E-score” value does the source give for AATCGCCA here?
Its value is -0.123.

With TCAAGGAA as the sequence, how does the “PBM E-score” value read?
Its value is 0.0199.

For AAGAGTGC, which “PBM E-score” value is on record?
The value was -0.176.

For ACAAGTAT, which “PBM E-score” value is on record?
The value was 0.0903.

Which “PBM E-score” value does the source give for ACACAACA here?
The value was -0.00322.

Which “PBM E-score” value does the source give for AATGTTTC here?
The value was 0.0615.

For AATGGATG, which “PBM E-score” value is on record?
Its value is 0.0553.

For ACAGGTAA, which “PBM E-score” value is on record?
Its value is 0.0238.

Which “PBM E-score” value does the source give for GTTCTGGA here?
Its value is 0.0895.

CGGTTGAA was tested. Which “PBM E-score” value did it give?
Its value is 0.112.

For AGAGACGC, which “PBM E-score” value is on record?
Its value is -0.0121.

How did the “PBM E-score” value turn out when ATCGGAGG was run?
Its value is -0.0261.

How did the “PBM E-score” value turn out when ACATGCGG was run?
Its value is 0.00676.

How did the “PBM E-score” value turn out when AGTGGAGG was run?
The value was -0.138.

With GCTATGCA as the sequence, how does the “PBM E-score” value read?
Its value is -0.0437.

With CTAGAGCA as the sequence, how does the “PBM E-score” value read?
Its value is -0.184.

With ATCTACTC as the sequence, how does the “PBM E-score” value read?
The value was -0.0691.

Which “PBM E-score” value does the source give for GTACAGGA here?
The value was 0.0846.

For ACTGTAAT, which “PBM E-score” value is on record?
The value was 0.111.

Which “PBM E-score” value does the source give for ACGCCGTG here?
Its value is -0.00375.

How did the “PBM E-score” value turn out when ATTCTCAC was run?
Its value is 0.08.

With GCCGCGAC as the sequence, how does the “PBM E-score” value read?
The value was 0.0507.

AATCATCG was tested. Which “PBM E-score” value did it give?
The value was 0.00665.

Which “PBM E-score” value does the source give for GGGCGACA here?
Its value is -0.162.

With ATCCCGAG as the sequence, how does the “PBM E-score” value read?
The value was 0.104.

With ATTAGGCC as the sequence, how does the “PBM E-score” value read?
The value was 0.141.

GAGGAATA was tested. Which “PBM E-score” value did it give?
Its value is 0.172.

With CATGTTAA as the sequence, how does the “PBM E-score” value read?
Its value is 0.127.

How did the “PBM E-score” value turn out when ACCAGTCC was run?
The value was -0.248.

ACTTTTTG was tested. Which “PBM E-score” value did it give?
Its value is -0.00087.

For GTACTACA, which “PBM E-score” value is on record?
The value was 0.0249.

Which “PBM E-score” value does the source give for TAGAATGA here?
The value was 0.0138.

How did the “PBM E-score” value turn out when GACTTATC was run?
Its value is -0.0389.

How did the “PBM E-score” value turn out when CACTTGAC was run?
The value was 0.0629.

For AGCTACTA, which “PBM E-score” value is on record?
The value was 0.0659.

Which “PBM E-score” value does the source give for GCCCCGGC here?
Its value is -0.216.

How did the “PBM E-score” value turn out when CGGTCCAC was run?
The value was -0.111.

For GGGCACGA, which “PBM E-score” value is on record?
The value was -0.0581.

With AAGAGCCG as the sequence, how does the “PBM E-score” value read?
The value was 0.0668.

For GCTTAAGC, which “PBM E-score” value is on record?
The value was 0.167.

CTCGGATA was tested. Which “PBM E-score” value did it give?
Its value is 0.193.

Which “PBM E-score” value does the source give for CGTCAAGA here?
Its value is -0.144.

TAGACCTA was tested. Which “PBM E-score” value did it give?
Its value is -0.0838.

CTTCTTTC was tested. Which “PBM E-score” value did it give?
The value was -0.114.

How did the “PBM E-score” value turn out when GCGCGAGA was run?
Its value is 0.17.

Which “PBM E-score” value does the source give for ATGGGGTC here?
The value was -0.106.

TGAGGTAA was tested. Which “PBM E-score” value did it give?
The value was -0.0482.
